# Experimental data taken from the supplement of paper PMC11732987, “Enantioselective OTUD7B fragment discovery through chemoproteomics screening and high-throughput optimisation” (Communications Chemistry, 2025).
# The chains behind the UniProt entries cited, without tags or fusion partners. Where a name states a change or a piece, a line headed by the entry shows the natural chain unless it says otherwise. Residues count along the entry.
# UniProt Q5BKX5: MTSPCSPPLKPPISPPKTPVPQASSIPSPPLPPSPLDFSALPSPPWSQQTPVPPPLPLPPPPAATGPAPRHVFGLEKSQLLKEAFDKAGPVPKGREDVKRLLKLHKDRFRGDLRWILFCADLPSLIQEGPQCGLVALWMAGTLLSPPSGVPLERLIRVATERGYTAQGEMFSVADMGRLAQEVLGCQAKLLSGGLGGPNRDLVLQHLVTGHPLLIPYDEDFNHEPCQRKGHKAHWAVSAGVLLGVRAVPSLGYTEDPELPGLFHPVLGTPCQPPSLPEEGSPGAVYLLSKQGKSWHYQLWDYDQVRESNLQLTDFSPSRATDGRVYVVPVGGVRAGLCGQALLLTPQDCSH
# UniProt Q6UWU4: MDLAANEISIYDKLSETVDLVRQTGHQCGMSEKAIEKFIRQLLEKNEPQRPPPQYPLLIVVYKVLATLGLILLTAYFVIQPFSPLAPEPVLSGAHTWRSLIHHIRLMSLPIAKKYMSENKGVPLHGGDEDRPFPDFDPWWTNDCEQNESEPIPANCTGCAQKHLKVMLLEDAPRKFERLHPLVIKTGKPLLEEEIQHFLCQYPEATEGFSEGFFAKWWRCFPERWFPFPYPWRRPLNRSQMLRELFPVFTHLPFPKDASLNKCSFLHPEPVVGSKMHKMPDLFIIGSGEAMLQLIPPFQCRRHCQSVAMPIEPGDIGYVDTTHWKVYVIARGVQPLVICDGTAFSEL
# UniProt Q6F5E8: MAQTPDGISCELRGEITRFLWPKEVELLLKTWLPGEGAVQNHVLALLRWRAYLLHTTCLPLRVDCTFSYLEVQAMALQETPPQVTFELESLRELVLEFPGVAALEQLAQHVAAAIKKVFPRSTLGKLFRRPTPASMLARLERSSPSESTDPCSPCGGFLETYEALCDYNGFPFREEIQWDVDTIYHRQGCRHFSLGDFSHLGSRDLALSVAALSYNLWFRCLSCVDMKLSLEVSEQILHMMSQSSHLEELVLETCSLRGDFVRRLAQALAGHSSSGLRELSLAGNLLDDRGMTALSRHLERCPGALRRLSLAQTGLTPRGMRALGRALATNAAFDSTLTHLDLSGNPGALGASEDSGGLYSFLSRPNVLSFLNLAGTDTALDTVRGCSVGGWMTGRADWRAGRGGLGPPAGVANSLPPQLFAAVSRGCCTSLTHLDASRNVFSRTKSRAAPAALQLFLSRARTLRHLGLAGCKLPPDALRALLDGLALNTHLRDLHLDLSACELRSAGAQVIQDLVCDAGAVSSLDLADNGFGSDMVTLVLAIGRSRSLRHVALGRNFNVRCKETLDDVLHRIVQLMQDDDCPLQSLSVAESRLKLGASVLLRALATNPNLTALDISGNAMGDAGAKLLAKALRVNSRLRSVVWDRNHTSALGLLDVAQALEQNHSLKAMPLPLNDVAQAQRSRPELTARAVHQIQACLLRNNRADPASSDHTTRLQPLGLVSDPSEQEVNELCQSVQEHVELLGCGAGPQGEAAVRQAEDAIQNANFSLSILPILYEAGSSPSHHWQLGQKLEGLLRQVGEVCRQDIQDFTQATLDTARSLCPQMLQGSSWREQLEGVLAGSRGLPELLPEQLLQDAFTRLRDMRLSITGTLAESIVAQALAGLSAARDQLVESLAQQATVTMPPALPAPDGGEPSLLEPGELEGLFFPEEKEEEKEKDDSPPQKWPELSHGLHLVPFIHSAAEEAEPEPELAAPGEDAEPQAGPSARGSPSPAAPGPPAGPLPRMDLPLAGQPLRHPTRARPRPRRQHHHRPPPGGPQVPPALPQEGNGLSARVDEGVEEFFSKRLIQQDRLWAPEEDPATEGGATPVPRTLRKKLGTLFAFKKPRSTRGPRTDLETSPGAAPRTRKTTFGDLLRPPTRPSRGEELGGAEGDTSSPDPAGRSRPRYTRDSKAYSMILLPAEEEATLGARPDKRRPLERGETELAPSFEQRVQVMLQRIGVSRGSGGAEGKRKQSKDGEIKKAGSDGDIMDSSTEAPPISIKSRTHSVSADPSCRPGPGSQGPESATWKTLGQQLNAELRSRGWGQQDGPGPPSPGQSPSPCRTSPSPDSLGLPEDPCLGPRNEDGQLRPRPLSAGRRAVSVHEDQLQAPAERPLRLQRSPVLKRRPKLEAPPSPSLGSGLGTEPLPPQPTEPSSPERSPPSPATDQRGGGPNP
# UniProt Q08AD1: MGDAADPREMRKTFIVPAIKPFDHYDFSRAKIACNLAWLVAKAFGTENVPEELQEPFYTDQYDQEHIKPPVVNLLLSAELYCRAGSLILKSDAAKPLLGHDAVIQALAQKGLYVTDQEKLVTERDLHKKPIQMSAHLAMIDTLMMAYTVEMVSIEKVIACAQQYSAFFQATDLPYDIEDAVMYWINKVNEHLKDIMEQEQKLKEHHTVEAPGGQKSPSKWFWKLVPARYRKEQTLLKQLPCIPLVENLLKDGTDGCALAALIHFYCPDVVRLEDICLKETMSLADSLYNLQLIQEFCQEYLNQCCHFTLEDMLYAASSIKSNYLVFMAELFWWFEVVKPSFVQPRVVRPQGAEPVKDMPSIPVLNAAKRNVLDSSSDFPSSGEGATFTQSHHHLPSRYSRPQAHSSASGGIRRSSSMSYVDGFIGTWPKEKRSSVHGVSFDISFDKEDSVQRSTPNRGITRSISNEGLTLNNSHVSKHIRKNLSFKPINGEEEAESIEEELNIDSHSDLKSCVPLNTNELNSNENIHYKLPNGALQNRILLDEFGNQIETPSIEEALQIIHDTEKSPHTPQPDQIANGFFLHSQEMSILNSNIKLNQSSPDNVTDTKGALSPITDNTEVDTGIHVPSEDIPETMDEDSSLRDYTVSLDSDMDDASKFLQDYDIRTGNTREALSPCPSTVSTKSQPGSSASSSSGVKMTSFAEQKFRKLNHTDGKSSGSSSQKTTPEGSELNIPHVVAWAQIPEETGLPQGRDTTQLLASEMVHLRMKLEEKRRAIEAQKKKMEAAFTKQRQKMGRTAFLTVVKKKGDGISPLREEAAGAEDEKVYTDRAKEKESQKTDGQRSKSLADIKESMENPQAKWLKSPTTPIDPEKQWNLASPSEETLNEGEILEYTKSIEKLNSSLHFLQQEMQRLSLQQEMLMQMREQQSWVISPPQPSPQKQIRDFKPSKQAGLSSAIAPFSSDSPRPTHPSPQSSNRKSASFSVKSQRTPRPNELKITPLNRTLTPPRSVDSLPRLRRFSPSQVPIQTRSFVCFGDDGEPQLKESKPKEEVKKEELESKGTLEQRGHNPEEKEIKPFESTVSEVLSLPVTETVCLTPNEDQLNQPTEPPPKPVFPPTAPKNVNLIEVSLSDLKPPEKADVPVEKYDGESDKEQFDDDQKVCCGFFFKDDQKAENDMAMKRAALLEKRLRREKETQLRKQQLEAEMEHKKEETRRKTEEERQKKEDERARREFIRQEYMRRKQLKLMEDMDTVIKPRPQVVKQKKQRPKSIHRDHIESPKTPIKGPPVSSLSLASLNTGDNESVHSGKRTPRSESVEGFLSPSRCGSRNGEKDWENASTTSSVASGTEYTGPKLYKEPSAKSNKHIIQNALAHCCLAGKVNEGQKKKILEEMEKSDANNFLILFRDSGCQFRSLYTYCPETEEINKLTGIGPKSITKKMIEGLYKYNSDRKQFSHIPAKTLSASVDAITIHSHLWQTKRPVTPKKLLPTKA
# UniProt O75155, 112-132: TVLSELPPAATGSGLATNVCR
# UniProt Q96GS4: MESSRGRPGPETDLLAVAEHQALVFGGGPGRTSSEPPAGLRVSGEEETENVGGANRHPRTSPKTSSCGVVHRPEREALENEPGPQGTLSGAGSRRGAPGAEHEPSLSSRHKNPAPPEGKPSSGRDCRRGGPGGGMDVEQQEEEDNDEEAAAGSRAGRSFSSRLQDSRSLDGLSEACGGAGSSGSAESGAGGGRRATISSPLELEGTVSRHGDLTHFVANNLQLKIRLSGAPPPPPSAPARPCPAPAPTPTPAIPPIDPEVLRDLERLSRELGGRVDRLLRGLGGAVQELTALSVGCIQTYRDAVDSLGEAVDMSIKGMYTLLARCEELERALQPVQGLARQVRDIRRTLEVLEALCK
# UniProt Q96K31: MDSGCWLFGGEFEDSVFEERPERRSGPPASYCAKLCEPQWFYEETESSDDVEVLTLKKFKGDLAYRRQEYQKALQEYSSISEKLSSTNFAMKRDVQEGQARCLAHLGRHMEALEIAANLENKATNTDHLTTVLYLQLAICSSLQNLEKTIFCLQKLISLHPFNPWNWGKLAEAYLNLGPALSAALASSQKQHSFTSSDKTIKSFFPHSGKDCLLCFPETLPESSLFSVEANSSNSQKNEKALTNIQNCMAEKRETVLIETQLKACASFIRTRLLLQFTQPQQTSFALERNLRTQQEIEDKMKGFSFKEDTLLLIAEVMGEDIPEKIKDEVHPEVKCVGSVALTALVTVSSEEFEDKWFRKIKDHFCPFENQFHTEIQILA
# UniProt Q13557: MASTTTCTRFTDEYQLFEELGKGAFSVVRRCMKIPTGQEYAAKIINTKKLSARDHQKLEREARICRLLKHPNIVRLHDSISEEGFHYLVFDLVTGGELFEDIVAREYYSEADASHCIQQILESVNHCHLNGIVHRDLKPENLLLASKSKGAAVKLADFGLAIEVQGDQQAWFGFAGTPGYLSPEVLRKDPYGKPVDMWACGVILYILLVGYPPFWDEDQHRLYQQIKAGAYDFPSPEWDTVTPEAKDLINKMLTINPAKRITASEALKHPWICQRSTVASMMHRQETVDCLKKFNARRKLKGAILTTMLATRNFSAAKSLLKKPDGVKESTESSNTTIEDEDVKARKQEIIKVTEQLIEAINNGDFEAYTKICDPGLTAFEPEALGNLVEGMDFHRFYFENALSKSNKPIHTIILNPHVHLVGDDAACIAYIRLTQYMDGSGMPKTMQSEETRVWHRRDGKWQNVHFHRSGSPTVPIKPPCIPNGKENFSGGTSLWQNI
# UniProt P17655, 391-414: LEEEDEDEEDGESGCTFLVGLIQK
# UniProt P35219: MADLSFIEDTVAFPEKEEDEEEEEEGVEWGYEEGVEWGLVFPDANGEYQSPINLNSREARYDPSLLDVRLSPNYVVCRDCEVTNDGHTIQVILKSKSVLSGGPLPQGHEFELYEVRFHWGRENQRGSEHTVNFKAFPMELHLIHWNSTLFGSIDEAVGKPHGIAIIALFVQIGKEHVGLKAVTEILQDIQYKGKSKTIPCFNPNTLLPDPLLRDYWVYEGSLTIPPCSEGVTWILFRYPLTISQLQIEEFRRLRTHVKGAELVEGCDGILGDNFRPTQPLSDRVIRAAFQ
# UniProt Q9H7E9, 2-24: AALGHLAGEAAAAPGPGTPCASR
# UniProt Q92994: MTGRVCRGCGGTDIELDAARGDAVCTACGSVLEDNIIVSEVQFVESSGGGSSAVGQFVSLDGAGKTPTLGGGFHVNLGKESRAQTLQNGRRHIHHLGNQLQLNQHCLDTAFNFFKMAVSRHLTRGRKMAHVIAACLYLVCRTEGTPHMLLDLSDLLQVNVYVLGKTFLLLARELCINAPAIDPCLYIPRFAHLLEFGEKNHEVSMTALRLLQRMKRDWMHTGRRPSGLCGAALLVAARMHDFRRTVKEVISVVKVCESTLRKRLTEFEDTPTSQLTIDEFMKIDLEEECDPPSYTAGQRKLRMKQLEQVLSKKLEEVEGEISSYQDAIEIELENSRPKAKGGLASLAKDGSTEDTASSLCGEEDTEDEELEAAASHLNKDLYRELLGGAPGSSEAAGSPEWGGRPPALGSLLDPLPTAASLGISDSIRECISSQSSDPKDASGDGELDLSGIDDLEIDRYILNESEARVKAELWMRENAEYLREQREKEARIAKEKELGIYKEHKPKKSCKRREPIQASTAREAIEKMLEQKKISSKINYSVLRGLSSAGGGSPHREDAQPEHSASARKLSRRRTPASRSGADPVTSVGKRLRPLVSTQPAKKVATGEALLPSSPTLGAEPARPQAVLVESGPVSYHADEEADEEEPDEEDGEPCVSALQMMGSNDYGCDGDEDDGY
# UniProt Q9H8M2: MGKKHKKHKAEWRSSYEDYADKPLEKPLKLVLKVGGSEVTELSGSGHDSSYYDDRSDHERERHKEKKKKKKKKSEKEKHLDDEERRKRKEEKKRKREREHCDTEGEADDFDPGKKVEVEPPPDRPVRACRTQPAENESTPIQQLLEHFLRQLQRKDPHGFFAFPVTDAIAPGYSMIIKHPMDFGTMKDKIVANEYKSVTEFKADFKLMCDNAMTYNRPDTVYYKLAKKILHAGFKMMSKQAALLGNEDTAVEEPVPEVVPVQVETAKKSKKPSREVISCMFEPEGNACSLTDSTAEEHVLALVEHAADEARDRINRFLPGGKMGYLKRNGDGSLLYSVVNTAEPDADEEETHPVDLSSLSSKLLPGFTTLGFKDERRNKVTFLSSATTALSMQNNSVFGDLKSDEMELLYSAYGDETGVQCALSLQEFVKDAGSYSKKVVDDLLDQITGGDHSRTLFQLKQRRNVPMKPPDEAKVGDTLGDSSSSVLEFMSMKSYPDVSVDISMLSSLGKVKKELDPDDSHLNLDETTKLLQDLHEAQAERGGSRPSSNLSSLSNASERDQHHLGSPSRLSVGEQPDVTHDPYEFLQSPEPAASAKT
# UniProt P47756, 196-215: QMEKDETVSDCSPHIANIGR
# This is one part of the list. The data scatter; read single values as rough.
# Compound: ClCC(=O)N[C@@H]1CCCc2ccccc12
# Assay: log2 mean competition ratio of IA-DTB cysteine labelling (DMSO/compound) (log2 ratio); higher = stronger cysteine engagement by compound
# Settings: 50 µM; treatment time: 4 h; cell line lysate: HEK293T
# Experimental: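 IA-DTB competitive cysteine chemoproteomics in HEK293T RIPA lysate. Lysates were treated with compound 29 or 30 at 50 or 200 µM for 4 h, then IA-DTB (500 µM, 1 h), trypsin-digested, NeutrAvidin-enriched and analysed by diaPASEF. Competition ratio = intensity DMSO / intensity compound (n=4 treated, n=64 DMSO); binding: mean log2 CR ≥ 1 and p ≤ 0.05 plus QC filters. Target is the cysteine site.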
row,Target,log2 mean competition ratio
1,BOD1L1 C1618 (UniProt Q8NFC6),-0.165
2,C19orf54 C186 (UniProt Q5BKX5),-0.0261
3,CAND1 C571,0.0917
4,BOD1L1 C285 (UniProt Q8NFC6),-0.273
5,C6orf89 C28 (UniProt Q6UWU4),-0.172
6,CAPN5 C495,-0.13
7,CARMIL2 C1339 (UniProt Q6F5E8),0.0212
8,CAMSAP2 C1032 (UniProt Q08AD1),0.124
9,BPTF C20,-0.0822
10,CAND2 C131 (UniProt O75155),0.398
11,BPTF C1156,-0.249
12,BORCS6 C67 (UniProt Q96GS4),0.219
13,C8orf76 C248 (UniProt Q96K31),0.0276
14,CARS2 C526 (UniProt Q9HA77),-0.0456
15,CAMK2D C481 (UniProt Q13557),-0.00503
16,C1orf174 C42 (UniProt Q8IYL3),0.577
17,CAPN2 C405 (UniProt P17655),-0.297
18,CBR1 C122 (UniProt P16152),-0.214
19,CA8 C200 (UniProt P35219),0.24
20,C8orf33 C21 (UniProt Q9H7E9),-0.115
21,CAPN2 C341 (UniProt P17655),-0.00347
22,BRF1 C289 (UniProt Q92994),0.28
23,C2CD5 C142 (UniProt Q86YS7),-0.0976
24,CAD C1455,0.189
25,BRD9 C101 (UniProt Q9H8M2),-0.34
26,CARMIL1 C464,-0.127
27,CAPZB C206 (UniProt P47756),-0.518
28,CAMSAP1 C719 (UniProt Q5T5Y3),0.157
29,BRIP1 C401 (UniProt Q9BX63),-0.474

# Some of the entries above, reformatted.
row	Target	log2 mean competition ratio
19	CA8 C200 (UniProt P35219)	0.24
27	CAPZB C206 (UniProt P47756)	-0.518
